# Source: the supplement of paper PMC8728848
# The list shows a part of the results.
# B1: PX14379D-pdi-530-26-530 (Parabacteroides distasonis) (protein)
# chain: DETVYDKLPADDFGQSTAELNALIGNSHNTMKKFWTEYMHLSECSGSMAVTPTRRGGDWYDGGQYREIYMHTWTSQTSRVKSAWKAATEAIGTCNEAIRKLQNSEILTEEEKAQDVADLRGVRAFWIYVMMDYWGNIPLLTEFHPTDKVFPGNSSRQEVFDWLIQEVEEIKDICPPATTENYGSFTQGAAYSLLAKLYLNAEAWGVTFSGNAYQKVIDNCDKVMAMGYILEPNWKDNFSVTNENSKEAILAATFSSSDTGNDGNVKNELHNNTLHYKDYLSLGITASGTWNGICAQPEYVRLFDEEDARLDGTFLTGLMIDKSTGKPIMTDHNNELNHTIDVNMIPGMEYDGTNWSAVEQHDGARCFKWEFASDLTSSMGNDFHIFRLADIYLMKAEALLRGGGSVSEATALVNTIRERGYGNSDHNYATVTLKEVQLERRLELAWEVYSRQDDIRFGCFTTGMWPQSNCERKADDYLKLLPVSQDAWQVNPNLKQNPGYAAFSK
# Assays:
# Experiment in all cases: glycan array binding signal (z-score within array); higher = stronger binding
# Conditions in all cases: glycan notation: IUPAC condensed, linker removed
# [1] = molecular target: Fuc(a1-2)Gal(b1-4)GlcNAc(b1-3)Gal(b1-4)GlcNAc(b1-3)Gal(b1-4)GlcNAc
# Method in brief: (§1)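 Glycan array binding is given as a within-array Z-score, which can be read as non-binding when negative. The arrays, 3228 of them, came from the Consortium for Functional Glycomics database and were retained only where the protein sequence was available. Z-scores were averaged across arrays of the same protein sequence at different concentrations or buffers and across linkers.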
# [2] = molecular target: Fuc(a1-2)Gal(b1-4)GlcNAc(b1-3)GalNAc
# Method in brief: as §1
# [3] = molecular target: Fuc(a1-2)Gal(b1-4)GlcNAc(b1-3)[Fuc(a1-2)Gal(b1-4)GlcNAc(b1-6)]GalNAc
# Method in brief: as §1
# [4] = molecular target: Fuc(a1-2)Gal(b1-4)GlcNAc(b1-3)[Fuc(a1-3)[Gal(b1-4)]GlcNAc(b1-6)]Gal(b1-4)Glc
# Method in brief: as §1
# [5] = molecular target: Fuc(a1-2)Gal(b1-4)GlcNAc(b1-6)GalNAc
# Method in brief: as §1
# [6] = molecular target: Fuc(a1-2)Gal(b1-4)GlcNAc6S
# Method in brief: as §1
# [7] = molecular target: Fuc(a1-2)Gal(b1-4)[Fuc(a1-3)]GlcNAc
# Method in brief: as §1
# [8] = molecular target: Fuc(a1-2)Gal(b1-4)[Fuc(a1-3)]GlcNAc(b1-2)Man(a1-3)[Fuc(a1-2)Gal(b1-4)[Fuc(a1-3)]GlcNAc(b1-2)Man(a1-6)]Man(b1-4)GlcNAc(b1-4)[Fuc(a1-6)]GlcNAc
# Method in brief: as §1
# [9] = molecular target: Fuc(a1-2)Gal(b1-4)[Fuc(a1-3)]GlcNAc(b1-2)[Fuc(a1-2)Gal(b1-4)[Fuc(a1-3)]GlcNAc(b1-4)]Man(a1-3)[Fuc(a1-2)Gal(b1-4)[Fuc(a1-3)]GlcNAc(b1-2)Man(a1-6)]Man(b1-4)GlcNAc(b1-4)GlcNAc
# Method in brief: as §1
# [10] = molecular target: Fuc(a1-2)Gal(b1-4)[Fuc(a1-3)]GlcNAc(b1-3)Gal(b1-4)[Fuc(a1-3)]GlcNAc
# Method in brief: as §1
# [11] = molecular target: Fuc(a1-2)Gal(b1-4)[Fuc(a1-3)]GlcNAc(b1-3)Gal(b1-4)[Fuc(a1-3)]GlcNAc(b1-3)Gal(b1-4)[Fuc(a1-3)]GlcNAc
# Method in brief: as §1
# [12] = molecular target: Fuc(a1-2)Gal(b1-4)[Fuc(a1-3)]GlcNAc(b1-3)GalNAc
# Method in brief: as §1
# [13] = molecular target: Fuc(a1-2)Gal(b1-4)[Fuc(a1-3)]GlcNAc(b1-3)[Neu5Ac(a2-6)Gal(b1-4)GlcNAc(b1-6)]Gal(b1-4)Glc
# Method in brief: as §1
# [14] = molecular target: Fuc(a1-2)Gal3S(b1-4)GlcNAc
# Method in brief: as §1
# [15] = molecular target: Fuc(a1-2)Gal6S(b1-3)GlcNAc
# Method in brief: as §1
# [16] = molecular target: Fuc(a1-2)Gal6S(b1-3)GlcNAc6S
# Method in brief: as §1
# [17] = molecular target: Fuc(a1-2)Gal6S(b1-4)Glc
# Method in brief: as §1
# [18] = molecular target: Fuc(a1-2)Gal6S(b1-4)Glc6S
# Method in brief: as §1
# [19] = molecular target: Fuc(a1-2)[Gal(a1-3)]Gal
# Method in brief: as §1
# [20] = molecular target: Fuc(a1-2)[Gal(a1-3)]Gal(b1-3)GalNAc
# Method in brief: as §1
# [21] = molecular target: Fuc(a1-2)[Gal(a1-3)]Gal(b1-3)GalNAc(b1-3)Gal(a1-4)Gal(b1-4)Glc
# Method in brief: as §1
# [22] = molecular target: Fuc(a1-2)[Gal(a1-3)]Gal(b1-3)GlcNAc
# Method in brief: as §1
# [23] = molecular target: Fuc(a1-2)[Gal(a1-3)]Gal(b1-3)GlcNAc(b1-2)Man(a1-3)[Fuc(a1-2)[Gal(a1-3)]Gal(b1-3)GlcNAc(b1-2)Man(a1-6)]Man(b1-4)GlcNAc(b1-4)GlcNAc
# Method in brief: as §1
# [24] = molecular target: Fuc(a1-2)[Gal(a1-3)]Gal(b1-3)GlcNAc(b1-2)Man(a1-3)[Fuc(a1-2)[Gal(a1-3)]Gal(b1-3)GlcNAc(b1-2)Man(a1-6)]Man(b1-4)GlcNAc(b1-4)[Fuc(a1-6)]GlcNAc
# Method in brief: as §1
# [25] = molecular target: Fuc(a1-2)[Gal(a1-3)]Gal(b1-3)GlcNAc(b1-3)GalNAc
# Method in brief: as §1
# [26] = molecular target: Fuc(a1-2)[Gal(a1-3)]Gal(b1-3)GlcNAc(b1-6)GalNAc
# Method in brief: as §1
# [27] = molecular target: Fuc(a1-2)[Gal(a1-3)]Gal(b1-4)Glc
# Method in brief: as §1
# [28] = molecular target: Fuc(a1-2)[Gal(a1-3)]Gal(b1-4)GlcNAc
# Method in brief: as §1
# [29] = molecular target: Fuc(a1-2)[Gal(a1-3)]Gal(b1-4)GlcNAc(b1-2)Man
# Method in brief: as §1
# [30] = molecular target: Fuc(a1-2)[Gal(a1-3)]Gal(b1-4)GlcNAc(b1-2)Man(a1-3)[Fuc(a1-2)[Gal(a1-3)]Gal(b1-4)GlcNAc(b1-2)Man(a1-6)]Man(b1-4)GlcNAc(b1-4)GlcNAc
# Method in brief: as §1
binder,measurement,setting,value
B1,glycan array binding signal (z-score),[1],-0.338
same,glycan array binding signal (z-score),[2],0.572
same,glycan array binding signal (z-score),[3],-0.167
same,glycan array binding signal (z-score),[4],-0.465
same,glycan array binding signal (z-score),[5],-0.147
same,glycan array binding signal (z-score),[6],-1.22
same,glycan array binding signal (z-score),[7],-0.508
same,glycan array binding signal (z-score),[8],0.465
same,glycan array binding signal (z-score),[9],-0.436
same,glycan array binding signal (z-score),[10],-1.04
same,glycan array binding signal (z-score),[11],2.52
same,glycan array binding signal (z-score),[12],-0.394
same,glycan array binding signal (z-score),[13],-0.349
same,glycan array binding signal (z-score),[14],-0.128
same,glycan array binding signal (z-score),[15],0.394
same,glycan array binding signal (z-score),[16],2.88
same,glycan array binding signal (z-score),[17],1.22
same,glycan array binding signal (z-score),[18],-0.709
same,glycan array binding signal (z-score),[19],0.08
same,glycan array binding signal (z-score),[20],0.313
same,glycan array binding signal (z-score),[21],-0.361
same,glycan array binding signal (z-score),[22],-0.505
same,glycan array binding signal (z-score),[23],0.313
same,glycan array binding signal (z-score),[24],-0.155
same,glycan array binding signal (z-score),[25],0.049
same,glycan array binding signal (z-score),[26],-0.421
same,glycan array binding signal (z-score),[27],0.621
same,glycan array binding signal (z-score),[28],-0.423
same,glycan array binding signal (z-score),[29],1.09
same,glycan array binding signal (z-score),[30],0.385

# 2 entries picked at random from those above, as already listed:
binder,measurement,setting,value
B1,glycan array binding signal (z-score),[2],0.572
same,glycan array binding signal (z-score),[30],0.385
